Source: PMC4161306, “Regulation of Arabidopsis Flowering by the Histone Mark Readers MRG1/2 via Interaction with CONSTANS to Modulate FT Expression” (PLoS Genetics, 2014)
No constants are given. Whether binding was seen depends on the method and setting. For some of these results: Binding seen in cells or lysates may run through a third protein. Some entries that bind do so weakly or less than the wild type. Where a sequence is shown, tags or fusion partners need not be part of it.

Chains of the proteins cited; added tags and fusions are not shown.
UniProt Q39057: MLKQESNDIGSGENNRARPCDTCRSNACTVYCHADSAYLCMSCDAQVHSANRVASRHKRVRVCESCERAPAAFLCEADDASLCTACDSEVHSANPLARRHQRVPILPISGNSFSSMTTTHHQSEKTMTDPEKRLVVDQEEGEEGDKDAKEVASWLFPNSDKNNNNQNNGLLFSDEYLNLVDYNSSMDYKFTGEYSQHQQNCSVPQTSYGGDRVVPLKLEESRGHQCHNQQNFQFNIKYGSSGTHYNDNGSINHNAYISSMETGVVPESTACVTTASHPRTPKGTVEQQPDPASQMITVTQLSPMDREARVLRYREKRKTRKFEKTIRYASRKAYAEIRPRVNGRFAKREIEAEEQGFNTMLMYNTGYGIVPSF

Columns and labels:
[1] = substrate: CO tagged with split YFP (Arabidopsis thaliana) (UniProt Q39057); assay: split reporter; BiFC with split YFP in Nicotiana benthamiana leaves co-infiltrated with Agrobacterium; confocal microscopy 2-3 days after infiltration
[2] = molecular target: MYC-CO (Arabidopsis thaliana) (UniProt Q39057); assay: co-IP; total protein extracts of 14-day-old transgenic Arabidopsis seedlings expressing YFP-MRG2 (estrogen-induced) and MYC-CO; IP with anti-MYC affinity gel, blot with anti-GFP
[3] = molecular target: GST-fused CONSTANS (CO) (Arabidopsis thaliana) (UniProt Q39057); assay: pull-down; GST-fused CO (or GST alone) with His-tagged MRG2, MRG2C or MRG2N, purified from E. coli; protocol of ref. 51; both purified

Binder	binding [1]	also measured
MRG2 tagged with split YFP (protein, UniProt Q4V3E2 1-327) MGSPNAAAETDLTTDDFIGDTRRDSGSDTETNTDCDGEDLPLLLLPAPPGHFEEGERVLAKHSDCFYEAKVLKVEFKDNEWKYFVHYIGWNKSWDEWIRLDCLLKHSDENIEKQKEQGLKQQGIKSAMAWKVSKMKPRSPNVARGRKRKQDSVDTEKNVLPSDNLLSFNIPPALRKQLLDDFEFVTQMQKLVQLPRSPNVDGILKKYIDSQMKKHGRVTDSLEEILKGLRCYFDKALPVMLLYNNERKQYEESVSGGVSPSTVYGAEHLLRLFVKLPELLVHVNMAEETLKELQDNFVDILRFLRKNQSVLFVSTYKAVEEMEKKEG	binds	
MRG2C tagged with split YFP (domain or fragment, UniProt Q4V3E2 162-327) SDNLLSFNIPPALRKQLLDDFEFVTQMQKLVQLPRSPNVDGILKKYIDSQMKKHGRVTDSLEEILKGLRCYFDKALPVMLLYNNERKQYEESVSGGVSPSTVYGAEHLLRLFVKLPELLVHVNMAEETLKELQDNFVDILRFLRKNQSVLFVSTYKAVEEMEKKEG	binds	
YFP-MRG2 (protein, UniProt Q4V3E2 1-327) MGSPNAAAETDLTTDDFIGDTRRDSGSDTETNTDCDGEDLPLLLLPAPPGHFEEGERVLAKHSDCFYEAKVLKVEFKDNEWKYFVHYIGWNKSWDEWIRLDCLLKHSDENIEKQKEQGLKQQGIKSAMAWKVSKMKPRSPNVARGRKRKQDSVDTEKNVLPSDNLLSFNIPPALRKQLLDDFEFVTQMQKLVQLPRSPNVDGILKKYIDSQMKKHGRVTDSLEEILKGLRCYFDKALPVMLLYNNERKQYEESVSGGVSPSTVYGAEHLLRLFVKLPELLVHVNMAEETLKELQDNFVDILRFLRKNQSVLFVSTYKAVEEMEKKEG		binding [2]: binds
N-terminal His-tagged chromodomain of MRG2 (His-MRG2N) (domain or fragment, UniProt Q4V3E2 1-123) MGSPNAAAETDLTTDDFIGDTRRDSGSDTETNTDCDGEDLPLLLLPAPPGHFEEGERVLAKHSDCFYEAKVLKVEFKDNEWKYFVHYIGWNKSWDEWIRLDCLLKHSDENIEKQKEQGLKQQG		binding [3]: no binding
